These are yes or no findings as the source states them, for the method shown. In cells and extracts the contact can be indirect. Some binding calls cover weakened binding; strength is not graded here.

Amino acid sequences for entries named in this document (tags omitted). Residues count along the entry.
UniProt Q8BWG9: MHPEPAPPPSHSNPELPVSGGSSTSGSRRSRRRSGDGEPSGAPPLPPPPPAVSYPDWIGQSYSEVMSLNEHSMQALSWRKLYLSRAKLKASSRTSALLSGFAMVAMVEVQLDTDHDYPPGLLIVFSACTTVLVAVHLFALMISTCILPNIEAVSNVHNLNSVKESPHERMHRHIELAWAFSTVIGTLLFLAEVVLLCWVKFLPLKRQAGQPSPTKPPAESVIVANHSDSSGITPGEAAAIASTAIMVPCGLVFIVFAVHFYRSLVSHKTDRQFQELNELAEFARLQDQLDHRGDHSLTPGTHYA
UniProt P70302, residues 23-685: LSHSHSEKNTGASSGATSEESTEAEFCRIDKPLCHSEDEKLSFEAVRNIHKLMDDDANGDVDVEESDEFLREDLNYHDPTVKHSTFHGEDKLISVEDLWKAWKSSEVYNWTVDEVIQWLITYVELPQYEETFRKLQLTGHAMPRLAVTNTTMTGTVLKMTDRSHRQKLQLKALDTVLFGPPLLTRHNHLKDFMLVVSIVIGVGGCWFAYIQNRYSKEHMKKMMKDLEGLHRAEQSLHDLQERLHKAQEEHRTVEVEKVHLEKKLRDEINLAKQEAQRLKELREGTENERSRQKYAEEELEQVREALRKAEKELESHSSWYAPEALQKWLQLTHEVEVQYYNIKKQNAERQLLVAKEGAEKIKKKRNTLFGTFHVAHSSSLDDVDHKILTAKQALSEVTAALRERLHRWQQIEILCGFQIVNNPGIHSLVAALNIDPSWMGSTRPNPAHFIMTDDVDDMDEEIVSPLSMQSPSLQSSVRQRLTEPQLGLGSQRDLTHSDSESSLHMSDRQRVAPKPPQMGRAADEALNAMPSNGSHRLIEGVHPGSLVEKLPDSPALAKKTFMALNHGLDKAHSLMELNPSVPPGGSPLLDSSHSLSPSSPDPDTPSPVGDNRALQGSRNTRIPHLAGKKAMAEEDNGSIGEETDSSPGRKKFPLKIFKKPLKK

Test [1] concerns the target FLAG-tagged Orai1 (UniProt Q8BWG9). Nature of the test: co-IP; LR73 cells transfected with Orai1-FLAG and STIM1; cells incubated 10 min with apoptotic or live thymocytes, apoptotic cell supernatants, PS or PC liposomes, with or without cytochalasin D (1 µM), bafilomycin A (1 µM), Mfge8 D89E or Anxa5; lysis in 1% Triton X-100, 150 mM NaCl, 50 mM Tris pH 7.6; anti-FLAG agarose beads 2 h; immunoblot. (In general: In western blotting, separated proteins are transferred to a membrane and probed.)

Test [2] has as its target Orai1-CFP (UniProt Q8BWG9). Nature of the test: FRET or BRET; LR73 cells with Orai1-CFP and STIM1-YFP in a 96-well plate, stimulated with apoptotic or live thymocytes; FRET read every 10 s with a microplate reader (FlexStation 3).
Test [3] addresses Orai1 (endogenous, BMDMs) (mouse (endogenous in BMDMs)) (UniProt Q8BWG9). In words: co-IP; lysates of BMDMs (WT or Mertk-/- mice), with or without apoptotic cells for 10 min; anti-Orai1 antibody and protein A/G agarose beads 2 h; immunoblot for STIM1.

For the substance “STIM1 (overexpressed in LR73 cells) (from UniProt P70302 23-685)”, in test [1], the binding entry is reported as “binds”.

Take STIM1-YFP (from UniProt P70302 23-685): the binding result in test [2] is “binds”. Consider “STIM1 (endogenous, BMDMs) (from UniProt P70302 23-685)”, for which, in test [3], the binding result is recorded as “binds”.

For the origin of these results see publication PMC8534458.
